Laboratory results: PubChem BioAssay AID1259254 (NCATS, 2017)
The deposit covers about 59,000 reagents; this is a random part of them. Of all reagents, about 1,550 (2.6%) are marked active. 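G2 share is only a proxy for re-replication; each gene was hit by three separate siRNAs, and active genes were retested.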 A number with no mark means an inactive call. The numbers tell different reagents against one gene apart. Not all columns of the deposit are shown. No sequences are given here. Not stated in the record: the amount of reagent.

- Screen: 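Gene knock-downs that lead to re-replication, shown by excess G2 DNA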 (primary screen)
- Cells: human HCT116 colorectal cancer cells
- Reagent: single siRNA against human genes
- Timing: 3 days
- Measured: 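Imaged Hoechst DNA stain sorts each cell into a cycle phase by DNA amount; per plate, G2 fraction set to 0% for non-targeting and 100% for GMNN siRNA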
- Scale: G2 robust z-score and G2 cells, % of GMNN control: higher = more G2 cells, more excess DNA replication
- Hit rule: 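Active siRNAs have a G2 robust z of 5 or more median absolute deviations over the median, which in these data means about 38% or higher of GMNN control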

LRIF1 (ligand dependent nuclear receptor interacting factor 1) #1 | G2 robust z-score = 4.38; G2 cells, % of GMNN control = 33.8
LRIF1 (ligand dependent nuclear receptor interacting factor 1) #2 | G2 robust z-score = -0.427; G2 cells, % of GMNN control = -0.0371
LRIF1 (ligand dependent nuclear receptor interacting factor 1) #3 | G2 robust z-score = 1.43; G2 cells, % of GMNN control = 13.1
GPR63 (G protein-coupled receptor 63) #1 | G2 robust z-score = -0.669; G2 cells, % of GMNN control = -1.74
GPR63 (G protein-coupled receptor 63) #2 | G2 robust z-score = -0.0221; G2 cells, % of GMNN control = 2.81
GPR63 (G protein-coupled receptor 63) #3 | G2 robust z-score = -0.527; G2 cells, % of GMNN control = -0.744
SMYD5 (SMYD family member 5) #1 | G2 robust z-score = -0.53; G2 cells, % of GMNN control = -0.76
SMYD5 (SMYD family member 5) #2 | G2 robust z-score = 1.06; G2 cells, % of GMNN control = 10.4
SMYD5 (SMYD family member 5) #3 | G2 robust z-score = -0.165; G2 cells, % of GMNN control = 1.8
C1orf53 (chromosome 1 open reading frame 53) #1 | G2 robust z-score = -0.126; G2 cells, % of GMNN control = 2.08
C1orf53 (chromosome 1 open reading frame 53) #2 | G2 robust z-score = -0.51; G2 cells, % of GMNN control = -0.623
C1orf53 (chromosome 1 open reading frame 53) #3 | G2 robust z-score = 0.867; G2 cells, % of GMNN control = 9.07
AGRN (agrin) #1 | G2 robust z-score = -0.563; G2 cells, % of GMNN control = -0.997
AGRN (agrin) #2 | G2 robust z-score = -0.997; G2 cells, % of GMNN control = -4.05
AGRN (agrin) #3 | G2 robust z-score = 0.0774; G2 cells, % of GMNN control = 3.51
H2BC14 (H2B clustered histone 14) #1 | G2 robust z-score = -0.891; G2 cells, % of GMNN control = -3.3
H2BC14 (H2B clustered histone 14) #2 | G2 robust z-score = 2.51; G2 cells, % of GMNN control = 20.6
H2BC14 (H2B clustered histone 14) #3 | G2 robust z-score = 4.98; G2 cells, % of GMNN control = 38
SNX13 (sorting nexin 13) #1 | G2 robust z-score = -0.51; G2 cells, % of GMNN control = -0.622
SNX13 (sorting nexin 13) #2 | G2 robust z-score = 0.954; G2 cells, % of GMNN control = 9.68
SNX13 (sorting nexin 13) #3 | G2 robust z-score = -0.406; G2 cells, % of GMNN control = 0.114
HRK (harakiri, BCL2 interacting protein) #1 | G2 robust z-score = 5.6 (active); G2 cells, % of GMNN control = 42.3
HRK (harakiri, BCL2 interacting protein) #2 | G2 robust z-score = -1; G2 cells, % of GMNN control = -4.1
HRK (harakiri, BCL2 interacting protein) #3 | G2 robust z-score = 0.594; G2 cells, % of GMNN control = 7.14
MS4A2 (membrane spanning 4-domains A2) #1 | G2 robust z-score = 1.59; G2 cells, % of GMNN control = 14.1
MS4A2 (membrane spanning 4-domains A2) #2 | G2 robust z-score = -0.119; G2 cells, % of GMNN control = 2.13
MS4A2 (membrane spanning 4-domains A2) #3 | G2 robust z-score = -0.993; G2 cells, % of GMNN control = -4.02
WASF2 (WASP family member 2) #1 | G2 robust z-score = 0.128; G2 cells, % of GMNN control = 3.87
WASF2 (WASP family member 2) #2 | G2 robust z-score = -0.424; G2 cells, % of GMNN control = -0.0167
WASF2 (WASP family member 2) #3 | G2 robust z-score = -0.776; G2 cells, % of GMNN control = -2.49

Look-ups from above.
Entry for LRIF1 (ligand dependent nuclear receptor interacting factor 1) #3 in “G2 cells, % of GMNN control”: 13.1
Result for LRIF1 (ligand dependent nuclear receptor interacting factor 1) #1 in “G2 cells, % of GMNN control”: 33.8
Under “G2 robust z-score”, SNX13 (sorting nexin 13) #3 shows -0.406
Under “G2 cells, % of GMNN control”, SNX13 (sorting nexin 13) #1 is entered as -0.622
